Measurements from the supplement of paper PMC8728848.
The other results are listed elsewhere or left out.

Columns and labels:
Assay in all cases: glycan array binding signal (z-score within array); higher = stronger binding
Details in all cases: glycan notation: IUPAC condensed, linker removed
[1] = target: Neu5Ac(a2-3)Gal(b1-3)[Fuc(a1-4)]GlcNAc
Summary of the method: (§1)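 The Consortium for Functional Glycomics database supplied 3228 glycan arrays, of which those lacking an available protein sequence were dropped. The binding signal, a within-array Z-score, was averaged across arrays of the same protein sequence and across linkers. Negative scores can be read as non-binding.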

[2] = target: Neu5Ac(a2-3)Gal(b1-3)[Fuc(a1-4)]GlcNAc(b1-3)Gal(b1-3)[Fuc(a1-4)]GlcNAc
Summary of the method: as §1

[3] = target: Neu5Ac(a2-3)Gal(b1-3)[Fuc(a1-4)]GlcNAc(b1-3)Gal(b1-4)[Fuc(a1-3)]GlcNAc
Summary of the method: as §1

[4] = target: Neu5Ac(a2-3)Gal(b1-3)[GlcNAc(b1-6)]GalNAc
Summary of the method: as §1

[5] = target: Neu5Ac(a2-3)Gal(b1-3)[Neu5Ac(a2-6)]GalNAc
Summary of the method: as §1

[6] = target: Neu5Ac(a2-3)Gal(b1-3)[Neu5Ac(a2-6)]GlcNAc(b1-3)[Fuc(a1-3)[Gal(b1-4)]GlcNAc(b1-6)]Gal(b1-4)Glc
Summary of the method: as §1

[7] = target: Neu5Ac(a2-3)Gal(b1-3)]Neu5Ac(a2-3)Gal(b1-4)]GlcNAc
Summary of the method: as §1

Neu5Ac(a2-3)Gal(b1-4)Glc = target: Neu5Ac(a2-3)Gal(b1-4)Glc
Summary of the method: as §1

[8] = target: Neu5Ac(a2-3)Gal(b1-4)GlcNAc
Summary of the method: as §1

[9] = target: Neu5Ac(a2-3)Gal(b1-4)GlcNAc(b1-2)Man
Summary of the method: as §1

[10] = target: Neu5Ac(a2-3)Gal(b1-4)GlcNAc(b1-2)Man(a1-3)[GlcNAc(b1-4)][Neu5Ac(a2-3)Gal(b1-4)GlcNAc(b1-2)Man(a1-6)]Man(b1-4)GlcNAc(b1-4)GlcNAc
Summary of the method: as §1

[11] = target: Neu5Ac(a2-3)Gal(b1-4)GlcNAc(b1-2)Man(a1-3)[Neu5Ac(a2-3)Gal(b1-4)GlcNAc(b1-2)Man(a1-6)]Man(b1-4)GlcNAc(b1-4)GlcNAc
Summary of the method: as §1

[12] = target: Neu5Ac(a2-3)Gal(b1-4)GlcNAc(b1-2)Man(a1-3)[Neu5Ac(a2-3)Gal(b1-4)GlcNAc(b1-2)Man(a1-6)]Man(b1-4)GlcNAc(b1-4)[Fuc(a1-6)]GlcNAc
Summary of the method: as §1

[13] = target: Neu5Ac(a2-3)Gal(b1-4)GlcNAc(b1-2)Man(a1-3)[Neu5Ac(a2-6)Gal(b1-4)GlcNAc(b1-2)Man(a1-6)]Man(b1-4)GlcNAc(b1-4)GlcNAc
Summary of the method: as §1

[14] = target: Neu5Ac(a2-3)Gal(b1-4)GlcNAc(b1-2)[Neu5Ac(a2-3)Gal(b1-4)GlcNAc(b1-4)]Man(a1-3)[GlcNAc(b1-4)][Neu5Ac(a2-3)Gal(b1-4)GlcNAc(b1-2)[Neu5Ac(a2-3)Gal(b1-4)GlcNAc(b1-6)]Man(a1-6)]Man(b1-4)GlcNAc(b1-4)GlcNAc
Summary of the method: as §1

[15] = target: Neu5Ac(a2-3)Gal(b1-4)GlcNAc(b1-2)[Neu5Ac(a2-3)Gal(b1-4)GlcNAc(b1-4)]Man(a1-3)[GlcNAc(b1-4)][Neu5Ac(a2-3)Gal(b1-4)GlcNAc(b1-4)Man(a1-6)]Man(b1-4)GlcNAc(b1-4)GlcNAc
Summary of the method: as §1

[16] = target: Neu5Ac(a2-3)Gal(b1-4)GlcNAc(b1-2)[Neu5Ac(a2-3)Gal(b1-4)GlcNAc(b1-6)]Man(a1-6)[Neu5Ac(a2-3)Gal(b1-4)GlcNAc(b1-2)Man(a1-3)]Man(b1-4)GlcNAc(b1-4)GlcNAc
Summary of the method: as §1

[17] = target: Neu5Ac(a2-3)Gal(b1-4)GlcNAc(b1-2)[Neu5Ac(a2-3)Gal(b1-4)GlcNAc(b1-6)]Man(a1-6)[Neu5Ac(a2-3)Gal(b1-4)GlcNAc(b1-2)Man(a1-3)][GlcNAc(b1-4)]Man(b1-4)GlcNAc(b1-4)GlcNAc
Summary of the method: as §1

[18] = target: Neu5Ac(a2-3)Gal(b1-4)GlcNAc(b1-3)Gal
Summary of the method: as §1

[19] = target: Neu5Ac(a2-3)Gal(b1-4)GlcNAc(b1-3)Gal(b1-3)GlcNAc
Summary of the method: as §1

[20] = target: Neu5Ac(a2-3)Gal(b1-4)GlcNAc(b1-3)Gal(b1-4)GlcNAc
Summary of the method: as §1

[21] = target: Neu5Ac(a2-3)Gal(b1-4)GlcNAc(b1-3)Gal(b1-4)GlcNAc(b1-2)Man(a1-3)[Neu5Ac(a2-3)Gal(b1-4)GlcNAc(b1-3)Gal(b1-4)GlcNAc(b1-2)Man(a1-6)]Man(b1-4)GlcNAc(b1-4)GlcNAc
Summary of the method: as §1

[22] = target: Neu5Ac(a2-3)Gal(b1-4)GlcNAc(b1-3)Gal(b1-4)GlcNAc(b1-3)Gal(b1-4)GlcNAc
Summary of the method: as §1

[23] = target: Neu5Ac(a2-3)Gal(b1-4)GlcNAc(b1-3)Gal(b1-4)GlcNAc(b1-3)Gal(b1-4)GlcNAc(b1-2)Man(a1-3)[Neu5Ac(a2-3)Gal(b1-4)GlcNAc(b1-3)Gal(b1-4)GlcNAc(b1-3)Gal(b1-4)GlcNAc(b1-2)Man(a1-6)]GalNAc
Summary of the method: as §1

[24] = target: Neu5Ac(a2-3)Gal(b1-4)GlcNAc(b1-3)Gal(b1-4)GlcNAc(b1-3)GalNAc
Summary of the method: as §1

[25] = target: Neu5Ac(a2-3)Gal(b1-4)GlcNAc(b1-3)Gal(b1-4)GlcNAc(b1-3)[Neu5Ac(a2-3)Gal(b1-4)GlcNAc(b1-3)Gal(b1-4)GlcNAc(b1-6)]GalNAc
Summary of the method: as §1

[26] = target: Neu5Ac(a2-3)Gal(b1-4)GlcNAc(b1-3)Gal(b1-4)GlcNAc(b1-6)[Gal(b1-3)]GalNAc
Summary of the method: as §1

[27] = target: Neu5Ac(a2-3)Gal(b1-4)GlcNAc(b1-3)Gal(b1-4)[Fuc(a1-3)]GlcNAc
Summary of the method: as §1

[28] = target: Neu5Ac(a2-3)Gal(b1-4)GlcNAc(b1-3)GalNAc
Summary of the method: as §1

[29] = target: Neu5Ac(a2-3)Gal(b1-4)GlcNAc(b1-3)[Neu5Ac(a2-3)Gal(b1-4)GlcNAc(b1-6)]GalNAc
Summary of the method: as §1

B1: GS7807Q-bfa-507-19-507 (Bacteroides fragilis) (protein)
chain: ASCNKFDDLNTNPDAATKVTAPMLATKLILNITQQGSAKNFVYHSMLSKQIAWSENASDEQYNLFGRTDFDGYTILTNCQKMVDAANEGDKDSYAALAKFMKAYKLFYKSLEVGDIPYSDALKGEEGVQKPKYDTQKEVMRQVLEDLEEAYTLFSSGSDFDGDPIFGGDTENWKKTVVAFELKVLTHLCKKDTDADLKVKERFARLVSSGSLMTSNADNFQLVYSNKAGQLYPFYYTQNKHSDYLMMSSVIIDNLKKFNDYRMFYYASPAKAQTDKGIKDSEWDAYLSIDPSDSYSNISVLYGKGEFCLANLRYTRVPEGEPLMRLSYAEQNFILAEGAVRGWISEDASTYYKKGIEASMNFIADNTPDKEEYTHGRTITQEYIQEYLAQPVIQLSGDKEKDLEMILLQRYLASFLQHPYDAYYDYRRTGYPVLPINPSTNLNTEKNKIPTRWMYPEAEFSYNPDNANEAVQRQYNGSDDVNKLMWILQ
glycan array binding signal (z-score) [1]: 0.478
glycan array binding signal (z-score) [2]: -0.567
glycan array binding signal (z-score) [3]: -0.38
glycan array binding signal (z-score) [4]: -1.42
glycan array binding signal (z-score) [5]: -0.795
glycan array binding signal (z-score) [6]: -0.05
glycan array binding signal (z-score) [7]: -0.397
glycan array binding signal (z-score) (Neu5Ac(a2-3)Gal(b1-4)Glc): -0.57
glycan array binding signal (z-score) [8]: -0.496
glycan array binding signal (z-score) [9]: 0.435
glycan array binding signal (z-score) [10]: -0.905
glycan array binding signal (z-score) [11]: -0.347
glycan array binding signal (z-score) [12]: -0.209
glycan array binding signal (z-score) [13]: -0.656
glycan array binding signal (z-score) [14]: -0.028
glycan array binding signal (z-score) [15]: -0.908
glycan array binding signal (z-score) [16]: 1.35
glycan array binding signal (z-score) [17]: -0.035
glycan array binding signal (z-score) [18]: -0.133
glycan array binding signal (z-score) [19]: -0.713
glycan array binding signal (z-score) [20]: -0.947
glycan array binding signal (z-score) [21]: 0.618
glycan array binding signal (z-score) [22]: -0.273
glycan array binding signal (z-score) [23]: 2.66
glycan array binding signal (z-score) [24]: -0.333
glycan array binding signal (z-score) [25]: 1.66
glycan array binding signal (z-score) [26]: -0.541
glycan array binding signal (z-score) [27]: -0.515
glycan array binding signal (z-score) [28]: -0.737
glycan array binding signal (z-score) [29]: 0.035
